Results deposited as PubChem BioAssay AID1259254 (NCATS, 2017).

Screen: 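Genome-wide screen for genes that prevent DNA re-replication in cancer cells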 (primary screen)
Cells: human HCT116 colorectal cancer cells
Knock-down reagent: single siRNA against human genes
Timing: 3 days
Measured: 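Imaged Hoechst DNA stain sorts each cell into a cycle phase by DNA amount; per plate, G2 fraction set to 0% for non-targeting and 100% for GMNN siRNA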
Reading the numbers: G2 robust z-score and G2 cells, % of GMNN control: higher = more G2 cells, more excess DNA replication; raw share of cells in G2: higher = larger share of cells with G2 DNA content
Rule for the call: 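An siRNA counts as active if its G2 robust z-score lies at least 5 MADs above the screen median; here such calls match roughly 38% of GMNN control or more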
Here is one part, drawn at random, of about 59,000 reagents tested. About 1,550 of all reagents (2.6%) count as active. 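G2 share is only a proxy for re-replication; each gene was hit by three separate siRNAs, and active genes were retested.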 Raw values are not corrected between plates. The numbers tell different reagents against one gene apart. The record does not give: the amount of reagent.

The first 4 entries, to show the layout:
Gene	reagent no.	G2 robust z-score	G2 cells, % of GMNN control	raw share of cells in G2 (%)	activity call
LINC02551	1	-0.548	-0.89	3.49	inactive
LINC02551	2	-1.19	-5.39	1.38	inactive
LINC02551	3	-0.524	-0.72	4.49	inactive
WAS	1	1.86	16	12.2	inactive

The list itself, repeating the preview:
Gene	reagent no.	G2 robust z-score	G2 cells, % of GMNN control	raw share of cells in G2 (%)	activity call
LINC02551	1	-0.548	-0.89	3.49	inactive
LINC02551	2	-1.19	-5.39	1.38	inactive
LINC02551	3	-0.524	-0.72	4.49	inactive
WAS	1	1.86	16	12.2	inactive
WAS	2	3.39	26.8	14.5	inactive
WAS	3	0.498	6.47	5.64	inactive
SUCLG2P2	1	0.635	7.44	6.35	inactive
SUCLG2P2	2	-0.258	1.15	3.49	inactive
SUCLG2P2	3	-0.63	-1.47	2.82	inactive
STARD10	1	-1.37	-6.67	2.37	inactive
STARD10	2	1.54	13.8	9.84	inactive
STARD10	3	1.65	14.6	8.63	inactive
C2orf69	1	0.576	7.02	6.12	inactive
C2orf69	2	0.31	5.15	4.89	inactive
C2orf69	3	0.249	4.72	4.7	inactive
GSKIP	1	-0.304	0.826	3.9	inactive
GSKIP	2	0.508	6.54	7.03	inactive
GSKIP	3	0.551	6.84	5.45	inactive
PHKG1	1	-0.732	-2.18	4.89	inactive
PHKG1	2	-0.44	-0.125	3.98	inactive
PHKG1	3	-0.916	-3.48	4.24	inactive
CTPS2	1	-1.2	-5.47	4.03	inactive
CTPS2	2	-0.162	1.83	5.09	inactive
CTPS2	3	-0.827	-2.85	3.15	inactive
SCAMP4	1	-0.707	-2.01	3.29	inactive
SCAMP4	2	0.319	5.21	4.88	inactive
SCAMP4	3	-1.09	-4.68	0.451	inactive
TEX15	1	0.706	7.94	7.47	inactive
TEX15	2	0.102	3.69	6.22	inactive
TEX15	3	-0.758	-2.37	2.28	inactive
FBH1	1	1.67	14.7	10	inactive
FBH1	2	-0.597	-1.23	5.1	inactive
FBH1	3	-1.27	-6	2.39	inactive
HSD17B11	1	0.137	3.93	7.74	inactive
HSD17B11	2	0.338	5.34	6.22	inactive
HSD17B11	3	-0.909	-3.43	2.49	inactive
C12orf71	1	-0.327	0.665	4.18	inactive
C12orf71	2	-0.496	-0.523	3.15	inactive
C12orf71	3	0.0195	3.1	4.32	inactive
RAD1	1	-1.01	-4.17	3.09	inactive
RAD1	2	-0.445	-0.164	4.09	inactive
RAD1	3	-0.191	1.63	5.54	inactive
MNAT1	1	-0.779	-2.51	4.39	inactive
MNAT1	2	-0.659	-1.67	2.64	inactive
MNAT1	3	0.0862	3.57	6.89	inactive
ZNF33B	1	-0.191	1.62	4.07	inactive
ZNF33B	2	-0.669	-1.74	5.21	inactive
ZNF33B	3	0.342	5.37	5.59	inactive
GGH	1	-0.632	-1.48	5.04	inactive
GGH	2	2.49	20.5	12.2	inactive
GGH	3	1.56	13.9	9.11	inactive
OR8K3	1	-0.213	1.47	4.11	inactive
OR8K3	2	1.04	10.3	6.65	inactive
OR8K3	3	3.85	30	12.8	inactive
SMAD1	1	-0.31	0.787	3.77	inactive
SMAD1	2	-0.663	-1.7	4.05	inactive
SMAD1	3	1.26	11.9	7.41	inactive
GLT1D1	1	-0.744	-2.26	3.07	inactive
GLT1D1	2	-0.0489	2.62	3.72	inactive
GLT1D1	3	-0.919	-3.5	1.85	inactive
PEX11G	1	1.15	11.1	8.79	inactive
PEX11G	2	1.66	14.6	7.59	inactive
PEX11G	3	3.04	24.4	10.6	inactive
TGFBR2	1	-0.234	1.32	6.04	inactive
TGFBR2	2	-0.941	-3.65	4.18	inactive
TGFBR2	3	0.919	9.44	7.35	inactive
RAB13	1	3.14	25.1	13.6	inactive
RAB13	2	-0.524	-0.718	4.41	inactive
RAB13	3	-0.354	0.477	4.3	inactive
